The campaign covered roughly 52,000 sequences. About 210 (0.4%) were called active.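 The calls were made as follows: active = gene whose silencing raises cell survival under the drug, median off-target-corrected z-score across its silencing RNAs 2 or more; inactive = the rest.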 Some of the results follow.

The nature of this experiment: Resistance to Poly (ADP-Ribose) Polymerase inhibitor: Gene Identification via Genome-wide siRNA Screen. The conditions noted are these: mouse BRCA2 R2336H ES cells, olaparib, CellTiter-Glo viability; stronger effect = higher value. A digest of the protocol:
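Genome-wide siRNA screen (3 siRNAs/gene, 20 nM) in mouse ES cells carrying hypomorphic BRCA2 R2336H; olaparib 500 nM added 48 h post-transfection, CellTiter-Glo viability 72 h later. Normalized to plate-median negative control; MAD z-scores, gene median, seed-adjusted.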
A general note: Cellular ATP, detected with luciferase, serves as a proxy for viable cell number.
Take GGAGACUUUGACCAAAUUATT against LOC433762: the z-score was inactive: 0.0273.

As for GGAGCCACAGAACAUAUUATT against Pinx1, the z-score was inactive: 0.122.

For the sequence CCGCCUGGAUAAUUAUGAUTT against Cltc, the z-score was inactive: 0.602.

With GCCACAUUGGAAGUAUCGATT against Pdk4, the z-score was inactive: 0.295.

As to GCUACCCUGAAUGCAACGUTT against Slc13a5, the z-score was inactive: -0.342.

For GGAACUGGAAAUCUCAGAGTT against Pcdh12, the z-score was inactive: -0.0238.

As for GGAAUCUUCCAGAACUAAATT against Rufy1, the z-score is inactive: 0.566.

With “GACUUCUCUAGUCUGCCGGTT against 5730557B15Rik”, the z-score was inactive: -1.23.

Turning to GCACGUAUGCUCUUUCUCATT against Pigw, the z-score was inactive: 1.09.

Regarding GGAGAGUAAAACCAAUACATT against BC008163, the z-score was inactive: 2.93.

With CGUGUGGUUAGUACCUAAUTT against Grin2c, the z-score is inactive: 2.04.

With CCUUCAACUUCCAUUUUUCTT against Ugt2b36, the z-score is inactive: 0.239.

Regarding GGAUAUGCUUAGAUAGACCTT against Galk2, the z-score is inactive: -0.124.

For the sequence “GGAAUAAAUAUUCCUCCUATT against 2810028N01Rik”, the z-score was inactive: -1.45.

For GCUCGAAUGUGUAAAGACGTT against Csnk1e, the z-score was inactive: 0.0731.

GGCUGUUUUCUAUCCUAGGTT against Cd207: the z-score is inactive: 1.04.

For “GGAAUAUUCUCUCAUCACATT against 1810037K07Rik”, the z-score is inactive: -0.985.

For the sequence CGAGGUCAUUCACUCUCGUTT against Hapln2, the z-score is inactive: 0.303.

Take GGUACCCUUAUUGGAUAUUTT against Slc30a5: the z-score was inactive: 0.755.

Turning to GCCUGUGUGUUGCUGUAAGTT against Krtap5-1, the z-score is inactive: -0.0331.

Take “GCUGGAUCUACCUAUUCAATT against 4921509C19Rik”: the z-score was inactive: 0.184.

For the sequence GCGACAUUGCCCUUCUCUGTT against LOC260408, the z-score is inactive: -1.05.

Turning to GGAGAUCAUGAAGAUCACATT against Mapk12, the z-score is inactive: 1.34.

On to GCUCUCAAUUGAGGAUAAATT against Mthfd1, for which the z-score was inactive: -0.599.

Regarding “GGAGCUAAUAAUGGUCAAATT against B230206N24Rik”, the z-score was inactive: 1.1.

For GGACUCGUUCCACUAUCAUTT against Nat5, the z-score is inactive: 0.096.

GGAAGAUGAUUUUGACAAUTT against Pcdh18: the z-score is inactive: -0.203.

For GGUUGCUAUGAUUUUUGUUTT against Itsn1, the z-score was inactive: -0.31.

Regarding GGAAAACCACCAUUUUAUGTT against Zfp36l1, the z-score was inactive: 1.13.

As to “CCUAAAGAAAGGUUAAAGATT against 6330577E15Rik”, the z-score is inactive: -1.26.

As to CGGUGACAUUUGUGAAACUTT against Smn1, the z-score was inactive: -1.7.

In the case of GCGAUGAUGUGCUUAUGUCTT against Znf341, the z-score was inactive: 0.576.

With “GCUAGGUGAUCAGAGAACUTT against 4833432M17Rik”, the z-score is inactive: 0.589.

“GGAACCUGUCCUAUAUAGGTT against 6030490I01Rik”: the z-score was inactive: 1.62.

Take GGGCCAAUAGGAGUUCUUUTT against Tcf20: the z-score was inactive: -0.107.

For the sequence “GGGAAUGUAUCCACAUCAATT against 1700017G21Rik”, the z-score is inactive: 1.1.

Take CCACCGUAAACUUCCCACCTT against LOC238447: the z-score is inactive: 0.598.

Regarding GAGCUAUACAAGGCCUACCTT against LOC547349, the z-score is inactive: -1.01.

On to “CGUUAACUCUCGGACGAUCTT against 1110028A07Rik”, for which the z-score is inactive: -0.104.

Regarding CCUACUAUGGCUCAUUUUATT against Rybp, the z-score was inactive: 1.78.

For GGCCAAAUGACUGAGAUUGTT against Dscr1l2, the z-score is inactive: 0.715.

For GGUGUUGCUUAUCAUCGGCTT against Mrgprh, the z-score is inactive: 0.442.

As for GGCCCAGAAGUUAUUCCUGTT against Zfp566, the z-score was inactive: 3.18.

Take “GGUUGUAAAGAUGAGAAAATT against 2810036K01Rik”: the z-score is inactive: -0.64.

Consider CGAGCAGUGAAGACCAUCUTT against Klk14, for which the z-score was inactive: -2.31.

For the sequence GGCUGUUCGGGUGACUAUUTT against Il17re, the z-score is inactive: -1.71.

Take “GGACAGGACAGCUUUGCACTT against 4921537P18Rik”: the z-score was inactive: -0.153.

Consider GCCACUACUUAGUGUCUUCTT against Plcd, for which the z-score is inactive: 0.807.

Take GGAUGAGAACUUCAUCCUATT against Ppia: the z-score is inactive: 0.558.

In the case of GGCAAAAUAAAGCUUAAGGTT against Robo3, the z-score was inactive: -0.675.

With GGCCACCAUCCAUGAGAACTT against Kcne2, the z-score was inactive: 0.363.

With GCUAGUUCUGAGAGACAGATT against Mup5, the z-score was inactive: -1.72.

Consider GGAGAAGAUGUGGAGACAUTT against Edf1, for which the z-score is inactive: 2.39.

Regarding GAGAAUCCAGAACUCCAAUTT against Olfr952, the z-score was inactive: -0.963.

As for GGAUCCAGUUUUGUUUUUGTT against Slc28a2, the z-score was inactive: 0.113.

In the case of CCAUGCAUGUUUUAGGCCATT against AI987692, the z-score is inactive: 1.54.

Consider GCCUGGAUAGGCUUAAAGATT against Dpep2, for which the z-score is inactive: 0.979.

In the case of GGUCUUUUCACAUACAUAUTT against Fstl1, the z-score is inactive: -1.99.

Take GCUUUCGGACUACAGAGGGTT against Prdx2: the z-score is inactive: 0.607.

For the sequence GGAUCUAAAGGUGAGUCAATT against Wdr40b, the z-score is inactive: -0.275.

On to GGUCCAAUUAAGGUUUUGUTT against Pias1, for which the z-score is inactive: 1.57.

For the sequence GCACCAAGGUCCUACUUGATT against BC049730, the z-score was inactive: 2.03.

As to “GGAUAUAAUAUCCUCGUAUTT against 2310045A20Rik”, the z-score was inactive: -0.603.

With GGAGAUGGAGGAGAAAGCATT against Art5, the z-score is inactive: -0.246.

Consider “GCACUUCCGACUUUUUCACTT against 9030224M15Rik”, for which the z-score was inactive: 0.317.

On to GUAUCAUACAAUGAUGUCCTT against Olfr176, for which the z-score is inactive: 0.628.

The values above are taken from PubChem BioAssay AID1347423 (Functional Genomics Laboratory (NCATS/FGL), 2020).
